Measured values: article PMC8866510
Results are given in words; binding and its absence hold for the method and conditions named.

Amino acid sequences for entries named in this document (tags omitted). Residues count along the entry.
UniProt Q2FZP8, residues 10-387: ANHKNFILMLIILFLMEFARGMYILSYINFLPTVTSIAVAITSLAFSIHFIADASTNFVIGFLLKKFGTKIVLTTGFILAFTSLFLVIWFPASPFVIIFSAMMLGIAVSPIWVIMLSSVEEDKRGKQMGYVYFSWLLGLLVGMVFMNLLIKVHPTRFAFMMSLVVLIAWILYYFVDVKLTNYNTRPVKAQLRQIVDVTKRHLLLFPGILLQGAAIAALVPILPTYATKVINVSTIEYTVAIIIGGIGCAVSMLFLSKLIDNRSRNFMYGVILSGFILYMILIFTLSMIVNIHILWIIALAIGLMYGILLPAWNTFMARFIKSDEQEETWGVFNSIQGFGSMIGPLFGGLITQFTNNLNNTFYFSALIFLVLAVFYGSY

Target: LtaA (S. aureus gentiobiosyl-diacylglycerol transporter), wild type (Staphylococcus aureus) (UniProt Q2FZP8)
Assay: mass photometry; LtaA in MSP1D1 nanodiscs (POPG:DAG 3:1), 100 nM, 50 mM Tris-HCl pH 8.0, 150 mM NaCl, around 25 °C, Refeyn OneMP; empty nanodiscs as reference; both purified

## LtaA (S. aureus gentiobiosyl-diacylglycerol transporter), wild type (from UniProt Q2FZP8 10-387)
  binding: no binding (tested: 100 nM)
